Laboratory results reported in publication PMC3160312.
Results are given in words; binding and its absence hold for the method and conditions named. Binding seen in cells or lysates may run through a third protein. Some entries that bind do so weakly or less than the wild type. For some of these results: Tags and fused reporters may be left off the sequences shown.

Sequences of proteins named here, by UniProt entry; tags and fusion partners are left off. A change or cut given only in a name is not applied to a line headed by its entry. A line that says so, or that is headed by a name, gives the form on record, which may keep a tag or linker. Residues count along the entry.
UniProt Q60598: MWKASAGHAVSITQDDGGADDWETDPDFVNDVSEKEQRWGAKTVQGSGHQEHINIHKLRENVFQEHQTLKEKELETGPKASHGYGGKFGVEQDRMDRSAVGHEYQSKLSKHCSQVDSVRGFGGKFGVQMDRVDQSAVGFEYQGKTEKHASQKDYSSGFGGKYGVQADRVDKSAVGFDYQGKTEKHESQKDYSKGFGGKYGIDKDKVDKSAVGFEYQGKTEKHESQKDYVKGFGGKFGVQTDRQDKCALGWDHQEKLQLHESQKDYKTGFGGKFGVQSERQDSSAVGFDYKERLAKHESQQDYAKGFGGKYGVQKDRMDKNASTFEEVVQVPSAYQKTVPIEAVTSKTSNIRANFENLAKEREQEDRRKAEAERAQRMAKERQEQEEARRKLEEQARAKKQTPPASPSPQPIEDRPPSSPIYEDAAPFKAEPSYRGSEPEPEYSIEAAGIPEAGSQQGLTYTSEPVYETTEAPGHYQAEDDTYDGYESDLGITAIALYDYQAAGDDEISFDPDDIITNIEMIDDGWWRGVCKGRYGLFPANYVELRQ
GST-cortactin C-terminal part (amino acids 336-542): residues 336-542 of Q60598
GST-cortactin[336–542(W525K)] (Q60598, form named): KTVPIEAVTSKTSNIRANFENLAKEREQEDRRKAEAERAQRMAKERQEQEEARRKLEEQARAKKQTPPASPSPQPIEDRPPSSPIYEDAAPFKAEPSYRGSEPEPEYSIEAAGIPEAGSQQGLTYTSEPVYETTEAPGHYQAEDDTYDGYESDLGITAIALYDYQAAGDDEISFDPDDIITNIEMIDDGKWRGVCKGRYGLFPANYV

Legend:
Assay in all cases: pull-down; 5 µg GST-cortactin protein bound to glutathione-agarose beads, incubated with lysates of 293T cells (transfected or not with SH3PXD2B); SH3PXD2B detected by western blotting; only the target purified
[1] = target: GST-cortactin fusion protein (full-length mouse cortactin) (mouse) (UniProt Q60598)
[2] = target: GST-cortactin[336–542(W525K)] (mouse) (UniProt Q60598)
[3] = target: GST-cortactin C-terminal part (amino acids 336-542) (mouse) (UniProt Q60598)

| binding [1] | binding [2] | binding [3] | Binder |
| --- | --- | --- | --- |
| binds | – | – | SH3PXD2B carrying a C-terminal V5 epitope tag (full-length human SH3PXD2B) (protein, UniProt A1X283 1-911) MPPRRSIVEVKVLDVQKRRVPNKHYVYIIRVTWSSGSTEAIYRRYSKFFDLQMQMLDKFPMEGGQKDPKQRIIPFLPGKILFRRSHIRDVAVKRLIPIDEYCKALIQLPPYISQCDEVLQFFETRPEDLNPPKEEHIGKKKSGGDQTSVDPMVLEQYVVVANYQKQESSEISLSVGQVVDIIEKNESGWWFVSTAEEQGWVPATCLEGQDGVQDEFSLQPEEEEKYTVIYPYTARDQDEMNLERGAVVEVIQKNLEGWWKIRYQGKEGWAPASYLKKNSGEPLPPKPGPGSPSHPGALDLDGVSRQQNAVGREKELLSSQRDGRFEGRPVPDGDAKQRSPKMRQRPPPRRDMTIPRGLNLPKPPIPPQVEEEYYTIAEFQTTIPDGISFQAGLKVEVIEKNLSGWWYIQIEDKEGWAPATFIDKYKKTSNASRPNFLAPLPHEVTQLRLGEAAALENNTGSEATGPSRPLPDAPHGVMDSGLPWSKDWKGSKDVLRKASSDMSASAGYEEISDPDMEEKPSLPPRKESIIKSEGELLERERERQRTEQLRGPTPKPPGVILPMMPAKHIPPARDSRRPEPKPDKSRLFQLKNDMGLECGHKVLAKEVKKPNLRPISKSKTDLPEEKPDATPQNPFLKSRPQVRPKPAPSPKTEPPQGEDQVDICNLRSKLRPAKSQDKSLLDGEGPQAVGGQDVAFSRSFLPGEGPGRAQDRTGKQDGLSPKEISCRAPPRPAKTTDPVSKSVPVPLQEAPQQRPVVPPRRPPPPKKTSSSSRPLPEVRGPQCEGHESRAAPTPGRALLVPPKAKPFLSNSLGGQDDTRGKGSLGPWGTGKIGENREKAAAASVPNADGLKDSLYVAVADFEGDKDTSSFQEGTVFEVREKNSSGWWFCQVLSGAPSWEGWIPSNYLRKKP |
| binds | no binding | binds | SH3PXD2B (endogenous, 293T cells) (protein, UniProt A1X283 1-911) MPPRRSIVEVKVLDVQKRRVPNKHYVYIIRVTWSSGSTEAIYRRYSKFFDLQMQMLDKFPMEGGQKDPKQRIIPFLPGKILFRRSHIRDVAVKRLIPIDEYCKALIQLPPYISQCDEVLQFFETRPEDLNPPKEEHIGKKKSGGDQTSVDPMVLEQYVVVANYQKQESSEISLSVGQVVDIIEKNESGWWFVSTAEEQGWVPATCLEGQDGVQDEFSLQPEEEEKYTVIYPYTARDQDEMNLERGAVVEVIQKNLEGWWKIRYQGKEGWAPASYLKKNSGEPLPPKPGPGSPSHPGALDLDGVSRQQNAVGREKELLSSQRDGRFEGRPVPDGDAKQRSPKMRQRPPPRRDMTIPRGLNLPKPPIPPQVEEEYYTIAEFQTTIPDGISFQAGLKVEVIEKNLSGWWYIQIEDKEGWAPATFIDKYKKTSNASRPNFLAPLPHEVTQLRLGEAAALENNTGSEATGPSRPLPDAPHGVMDSGLPWSKDWKGSKDVLRKASSDMSASAGYEEISDPDMEEKPSLPPRKESIIKSEGELLERERERQRTEQLRGPTPKPPGVILPMMPAKHIPPARDSRRPEPKPDKSRLFQLKNDMGLECGHKVLAKEVKKPNLRPISKSKTDLPEEKPDATPQNPFLKSRPQVRPKPAPSPKTEPPQGEDQVDICNLRSKLRPAKSQDKSLLDGEGPQAVGGQDVAFSRSFLPGEGPGRAQDRTGKQDGLSPKEISCRAPPRPAKTTDPVSKSVPVPLQEAPQQRPVVPPRRPPPPKKTSSSSRPLPEVRGPQCEGHESRAAPTPGRALLVPPKAKPFLSNSLGGQDDTRGKGSLGPWGTGKIGENREKAAAASVPNADGLKDSLYVAVADFEGDKDTSSFQEGTVFEVREKNSSGWWFCQVLSGAPSWEGWIPSNYLRKKP |
